This passage reports binding results from doi:10.1101/2020.01.03.892703.

No constants are given. Whether binding was seen depends on the method and setting. Binding seen in cells or lysates may run through a third protein. A yes stands for co-enrichment or nearness to the bait. Other partners may have been found. Sequences can lack the tags named with a protein.

The chains are these.
B1: XRN2 (protein, UniProt Q9DBR1 1-951)
chain: MGVPAFFRWLSRKYPSIIVNCVEEKPKECNGVKIPVDASKPNPNDVEFDNLYLDMNGIIHPCTHPEDKPAPKNEDEMMVAIFEYIDRLFNIVRPRRLLYMAIDGVAPRAKMNQQRSRRFRASKEGMEAAVEKQRVREEILAKGGFLPPEEIKERFDSNCITPGTEFMDNLAKCLRYYIADRLNNDPGWKNLTVILSDASAPGEGEHKIMDYIRRQRAQPNHDPNTHHCLCGADADLIMLGLATHEPNFTIIREEFKPNKPKPCALCNQFGHEVKDCEGLPREKKGKHDELADSLPCAEGEFIFLRLNVLREYLERELTMASLPFPFDVERSIDDWVFMCFFVGNDFLPHLPSLEIREGAIDRLVNIYKNVVHKTGGYLTESGYVNLQRVQMIMLAVGEVEDSIFKKRKDDEDSFRRRQKEKRKRMKRDQPAFTPSGILTPHALGSRNSPGCQVASNPRQAAYEMRMQRNSSPSISPNTSFASDGSPSPLGGIKRKAEDSDSEPEPEDNVRLWEAGWKQRYYKNKFDVDAADEKFRRKVVQSYVEGLCWVLRYYYQGCASWKWYYPFHYAPFASDFEGIADMSSEFEKGTKPFKPLEQLMGVFPAASGNFLPPTWRKLMSDPDSSIIDFYPEDFAIDLNGKKYAWQGVALLPFVDERRLRAALEEVYPDLTPEENRRNSLGGDVLFVGKLHPLRDFILELYQTGSTEPVDVPPELCHGIQGTFSLDEEAILPDQTVCSPVPMLRDLTQNTAVSINFKDPQFAEDYVFKAAMLPGARKPATVLKPGDWEKSSNGRQWKPQLGFNRDRRPVHLDQAAFRTLGHVTPRGSGTSVYTNTALPPANYQGNNYRPLLRGQAQIPKLMSNMRPQDSWRGPPPLFQQHRFERSVGAEPLLPWNRMIQNQNAAFQPNQYQMLGGPGGYPPRRDDHRGGRQGYPREGRKYPLPPPSGRYSWN
B2: WDR75 (protein, UniProt Q3U821 1-830)
chain: MVEEGVRVVRCGGSRLNFRRAVFSVDSKYIFCVSGDFVKVYSTTTEECVHILHGHTDLVSGILVNPSNHLQLYSCSFDGTIKLWDYVDGILIKTFTIGPKLHAFFIPLHAEDSVFLTISKEEPDIFQLVSVKLPKSTSQDVEARQLTFVLDYINRSPKCIAFGNEGEYVAAVRDFYLSVYFFKKKKTCNFTLPSTKNKKNAKNKFTCVACHPKEDCIASGHMDGKIRLWRNFHSDQKYTYTCLHWHHDMVMDLAFTVTGTSLLSGGRECVLVEWRDGSEKNKEFLPRLGSSIEHISVSPAGDLFCTSHSDNKITVIHRNLDASAVIQGLVKDRSISTGLMVDPRTKALVLNGKPGHLQFYSLQGDKQLYNLDIIQQEYINDEGLTQTELTKAAFGCSGTWLATVEQRQENENELELQMKLWNYSKKTQGFVLNTKIAMPHDDHITALCFNNAESYEKPILVTASRDGHFKVWILTDDSDIYKKAIAWTCDFVGSYHKYQATNCCFSEDGSLLAVSFEEIVTIWDSQTWELKCTFCQRAGKIRHLCFGRLTCSKYLLGTTDNGILCCWNLLSCSIQWSAKLNVRVMEPDPYSDHVAAVAQSSAGSDLFVFKPSEPRPLYIQKNVSREEVQWGVFVPRDVPESFTSETHQWLNRSQFYFLTKSQSLLTFSTKSPEEKLTPTSKQLLAEESLPTTPFSFILGKHRQQQGAKLTETSENELVQLPLTENIPAITELLHTPAHVLPSASFLCSLFVNSLLLSKETKSAEEVPDDVDMEGNKESDDSDEEYDLTEKDKETNNNTDLGEDAIHQLSKSEEKELRKFRKVDYSWLTAL
B3: WDR43 (protein, UniProt Q6ZQL4 1-677)
chain: MAAGGGGSYDPLAPAGVPCAFSPDSQAYFALASSDGQLRVWETANNRLHQEYVPSAHLSGTCTCLAWAPARLQAKESHQRKKRKSEVTGTKDQADLLALGTAVGSILLYSTVRGELHSKLTSGGHENRVNCIQWHQDNDCLYSCSDDKYIVEWSTQTCKVKCKWKGDNSSVSSLCISPDGKMLLSAGRTIKLWVLETKEVYRHFTGHATPVSSLRFTTIRPNESQPSDGITGLYFLSGAVHDRLLNVWQVRSENKEKSAVMSFTVTDEPVYVDLTLSENKEEPVKLAVVCRDGQVHLFEHILNGHCKKPLTSNCTIQIATPGKGKKVTPKPIPILAASFCLDKMSLLLVYGNWFQPTIERVALNSKDTHICLERDISNCWAPTVETAITKVKTPVMNSEAKVLVPGIPGHHAPIKLPPAQPKEAENKRKLGSTEATIEERLGAMDLDRKGRKDDLQTNSFAVLLTQGLESNDFEILNKVLQTKNVNLIKRTVLRIPLRVVIPLLQELTKRLQGHPNSAALMIQWLKCVLTIHASYLSTLPDLVEQLGTLYQLMESRVKTFQKLSNLHGKLILLVTQVTASEKSKKMTSPGQKAKLVYEEESSEEESDDEVPEKDSDDNWDEDEDKDSEKDEGVDEDNEEEDEDMEDKEENEEDREVSSEKELNGDSDLDPENESEEE

The assay has as its target T1, biotin-tagged XPF (mouse (endogenous knock-in in MEFs)) (UniProt Q9QZD4).
T1 sequence (chain, biotin on the 15 aa tag (by the BirA ligase in vivo)): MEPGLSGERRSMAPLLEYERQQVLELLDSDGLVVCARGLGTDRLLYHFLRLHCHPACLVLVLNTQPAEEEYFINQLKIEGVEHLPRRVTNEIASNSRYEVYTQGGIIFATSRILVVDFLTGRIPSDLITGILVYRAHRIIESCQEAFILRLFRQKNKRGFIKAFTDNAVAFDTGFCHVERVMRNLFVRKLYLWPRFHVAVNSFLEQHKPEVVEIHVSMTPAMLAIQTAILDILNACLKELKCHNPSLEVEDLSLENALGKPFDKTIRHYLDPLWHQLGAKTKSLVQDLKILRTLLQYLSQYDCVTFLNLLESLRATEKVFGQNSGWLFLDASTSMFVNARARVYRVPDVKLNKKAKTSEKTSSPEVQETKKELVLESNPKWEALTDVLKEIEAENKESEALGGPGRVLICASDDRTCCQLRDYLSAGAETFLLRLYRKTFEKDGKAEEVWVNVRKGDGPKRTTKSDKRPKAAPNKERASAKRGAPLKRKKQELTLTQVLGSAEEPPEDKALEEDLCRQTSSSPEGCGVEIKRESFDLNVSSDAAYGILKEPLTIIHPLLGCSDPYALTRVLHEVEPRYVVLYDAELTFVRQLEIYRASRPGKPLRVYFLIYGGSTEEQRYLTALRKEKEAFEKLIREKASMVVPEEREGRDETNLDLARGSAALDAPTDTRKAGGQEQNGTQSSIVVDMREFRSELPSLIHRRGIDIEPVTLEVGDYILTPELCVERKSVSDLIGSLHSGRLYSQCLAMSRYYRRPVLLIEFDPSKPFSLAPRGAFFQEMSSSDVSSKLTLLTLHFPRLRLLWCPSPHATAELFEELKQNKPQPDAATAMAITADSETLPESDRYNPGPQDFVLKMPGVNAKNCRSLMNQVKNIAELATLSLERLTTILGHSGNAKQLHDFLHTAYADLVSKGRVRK
Nature of the assay: affinity purification with mass spectrometry.
B1: the binding entry is listed as “binds”.

In the case of B2, the binding entry is “binds”.

In the case of B3, the binding entry is “binds”.
